# Measured values as given in the supplement of paper PMC8728848.
# The list shows a part of the results.
# How the values were obtained:
# Assay in all cases: glycan array binding signal (z-score within array); higher = stronger binding
# Details in all cases: glycan notation: IUPAC condensed, linker removed
# [1] = molecular target: Fuc(a1-2)[Gal(a1-3)]Gal(b1-4)GlcNAc(b1-2)Man(a1-3)[Fuc(a1-2)[Gal(a1-3)]Gal(b1-4)GlcNAc(b1-2)Man(a1-6)]Man(b1-4)GlcNAc(b1-4)GlcNAc
# Outline: (§1)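 Columns mapping to the same glycan were averaged after glycan names were converted to IUPAC-condensed notation. The data come from 3228 arrays in the Consortium for Functional Glycomics database, limited to those with an available protein sequence. Binding is reported as a within-array Z-score averaged across arrays of one protein sequence and across linkers.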
# [2] = molecular target: Fuc(a1-2)[Gal(a1-3)]Gal(b1-4)GlcNAc(b1-2)Man(a1-3)[Fuc(a1-2)[Gal(a1-3)]Gal(b1-4)GlcNAc(b1-2)Man(a1-6)]Man(b1-4)GlcNAc(b1-4)[Fuc(a1-6)]GlcNAc
# Outline: as §1
# [3] = molecular target: Fuc(a1-2)[Gal(a1-3)]Gal(b1-4)GlcNAc(b1-3)GalNAc
# Outline: as §1
# [4] = molecular target: Fuc(a1-2)[Gal(a1-3)]Gal(b1-4)GlcNAc(b1-6)GalNAc
# Outline: as §1
# [5] = molecular target: Fuc(a1-2)[Gal(a1-3)]Gal(b1-4)[Fuc(a1-3)]Glc
# Outline: as §1
# [6] = molecular target: Fuc(a1-2)[Gal(a1-3)]Gal(b1-4)[Fuc(a1-3)]GlcNAc
# Outline: as §1
# [7] = molecular target: Fuc(a1-2)[Gal(a1-3)]Gal(b1-4)[Fuc(a1-3)]GlcNAc(b1-3)GalNAc
# Outline: as §1
# [8] = molecular target: Fuc(a1-2)[Gal(a1-4)]Gal(b1-4)GlcNAc
# Outline: as §1
# [9] = molecular target: Fuc(a1-2)[GalNAc(a1-3)]Gal
# Outline: as §1
# [10] = molecular target: Fuc(a1-2)[GalNAc(a1-3)]Gal(b1-3)GalNAc(a1-3)[Fuc(a1-2)]Gal(b1-4)GlcNAc
# Outline: as §1
# [11] = molecular target: Fuc(a1-2)[GalNAc(a1-3)]Gal(b1-3)GalNAc(b1-3)Gal(a1-4)Gal(b1-4)Glc
# Outline: as §1
# [12] = molecular target: Fuc(a1-2)[GalNAc(a1-3)]Gal(b1-3)GlcNAc
# Outline: as §1
# [13] = molecular target: Fuc(a1-2)[GalNAc(a1-3)]Gal(b1-3)GlcNAc(b1-2)Man(a1-3)[Fuc(a1-2)[GalNAc(a1-3)]Gal(b1-3)GlcNAc(b1-2)Man(a1-6)]Man(b1-4)GlcNAc(b1-4)GlcNAc
# Outline: as §1
# [14] = molecular target: Fuc(a1-2)[GalNAc(a1-3)]Gal(b1-3)GlcNAc(b1-2)Man(a1-3)[Fuc(a1-2)[GalNAc(a1-3)]Gal(b1-3)GlcNAc(b1-2)Man(a1-6)]Man(b1-4)GlcNAc(b1-4)[Fuc(a1-6)]GlcNAc
# Outline: as §1
# [15] = molecular target: Fuc(a1-2)[GalNAc(a1-3)]Gal(b1-3)GlcNAc(b1-3)GalNAc
# Outline: as §1
# [16] = molecular target: Fuc(a1-2)[GalNAc(a1-3)]Gal(b1-3)GlcNAc(b1-6)GalNAc
# Outline: as §1
# [17] = molecular target: Fuc(a1-2)[GalNAc(a1-3)]Gal(b1-4)Glc
# Outline: as §1
# [18] = molecular target: Fuc(a1-2)[GalNAc(a1-3)]Gal(b1-4)GlcNAc
# Outline: as §1
# [19] = molecular target: Fuc(a1-2)[GalNAc(a1-3)]Gal(b1-4)GlcNAc(b1-2)Man
# Outline: as §1
# [20] = molecular target: Fuc(a1-2)[GalNAc(a1-3)]Gal(b1-4)GlcNAc(b1-2)Man(a1-3)[Fuc(a1-2)[GalNAc(a1-3)]Gal(b1-4)GlcNAc(b1-2)Man(a1-6)]Man(b1-4)GlcNAc(b1-4)GlcNAc
# Outline: as §1
# [21] = molecular target: Fuc(a1-2)[GalNAc(a1-3)]Gal(b1-4)GlcNAc(b1-2)Man(a1-3)[Fuc(a1-2)[GalNAc(a1-3)]Gal(b1-4)GlcNAc(b1-2)Man(a1-6)]Man(b1-4)GlcNAc(b1-4)[Fuc(a1-6)]GlcNAc
# Outline: as §1
# [22] = molecular target: Fuc(a1-2)[GalNAc(a1-3)]Gal(b1-4)GlcNAc(b1-3)Gal(b1-4)GlcNAc
# Outline: as §1
# [23] = molecular target: Fuc(a1-2)[GalNAc(a1-3)]Gal(b1-4)GlcNAc(b1-3)Gal(b1-4)GlcNAc(b1-3)Gal(b1-4)GlcNAc
# Outline: as §1
# [24] = molecular target: Fuc(a1-2)[GalNAc(a1-3)]Gal(b1-4)GlcNAc(b1-3)GalNAc
# Outline: as §1
# [25] = molecular target: Fuc(a1-2)[GalNAc(a1-3)]Gal(b1-4)GlcNAc(b1-3)[Fuc(a1-2)[GalNAc(a1-3)]Gal(b1-4)GlcNAc(b1-6)]GalNAc
# Outline: as §1
# [26] = molecular target: Fuc(a1-2)[GalNAc(a1-3)]Gal(b1-4)GlcNAc(b1-6)GalNAc
# Outline: as §1
# [27] = molecular target: Fuc(a1-2)[GalNAc(a1-3)]Gal(b1-4)[Fuc(a1-3)]GlcNAc
# Outline: as §1
# [28] = molecular target: Fuc(a1-2)[GalNAc(a1-3)]Gal(b1-4)[Fuc(a1-3)]GlcNAc(b1-3)GalNAc
# Outline: as §1
# [29] = molecular target: Fuc(a1-2)[GalNAc(a1-4)]Gal(b1-4)GlcNAc
# Outline: as §1
# [30] = molecular target: Fuc(a1-2)[GalNAc(b1-3)]Gal
# Outline: as §1
# [31] = molecular target: Fuc(a1-3)GlcNAc
# Outline: as §1
# [32] = molecular target: Fuc(a1-3)[Gal(b1-4)]Glc6S
# Outline: as §1
# [33] = molecular target: Fuc(a1-3)[Gal(b1-4)]GlcNAc
# Outline: as §1
# [34] = molecular target: Fuc(a1-3)[Gal(b1-4)]GlcNAc(b1-2)Man
# Outline: as §1
# [35] = molecular target: Fuc(a1-3)[Gal(b1-4)]GlcNAc(b1-2)Man(a1-3)[Fuc(a1-3)[Gal(b1-4)]GlcNAc(b1-2)Man(a1-6)]Man(b1-4)GlcNAc(b1-4)GlcNAc
# Outline: as §1
# [36] = molecular target: Fuc(a1-3)[Gal(b1-4)]GlcNAc(b1-2)Man(a1-3)[Fuc(a1-3)[Gal(b1-4)]GlcNAc(b1-2)Man(a1-6)]Man(b1-4)GlcNAc(b1-4)[Fuc(a1-6)]GlcNAc
# Outline: as §1
# [37] = molecular target: Fuc(a1-3)[Gal(b1-4)]GlcNAc(b1-3)Gal(b1-3)[Fuc(a1-4)]GlcNAc
# Outline: as §1
binder,measurement,setting,value
"Protein L(B1-B4) (Finegoldia magna), Q51912 (protein) KEETPETPETDSEEEVTIKANLIFANGSTQTAEFKGTFEKATSEAYAYADTLKKDNGEYTVDVADKGYTLNIKFAGKEKTPEEPKEEVTIKANLIYADGKTQTAEFKGTFEEATAEAYRYADALKKDNGEYTVDVADKGYTLNIKFAGKEKTPEEPKEEVTIKANLIYADGKTQTAEFKGTFEEATAEAYRYADLLAKENGKYTVDVADKGYTLNIKFAGKEKTPEEPKEEVTIKANLIYADGKTQTAEFKGTFAEATAEAYRYADLLAKENGKYTADLEDGGYTINIRFAG",glycan array binding signal (z-score),[1],0.796
same,glycan array binding signal (z-score),[2],0.815
same,glycan array binding signal (z-score),[3],3.09
same,glycan array binding signal (z-score),[4],-0.474
same,glycan array binding signal (z-score),[5],-0.024
same,glycan array binding signal (z-score),[6],0.143
same,glycan array binding signal (z-score),[7],1.4
same,glycan array binding signal (z-score),[8],-0.799
same,glycan array binding signal (z-score),[9],-0.906
same,glycan array binding signal (z-score),[10],-0.751
same,glycan array binding signal (z-score),[11],-0.372
same,glycan array binding signal (z-score),[12],-0.643
same,glycan array binding signal (z-score),[13],-0.525
same,glycan array binding signal (z-score),[14],1.11
same,glycan array binding signal (z-score),[15],0.515
same,glycan array binding signal (z-score),[16],-0.958
same,glycan array binding signal (z-score),[17],-0.87
same,glycan array binding signal (z-score),[18],-0.955
same,glycan array binding signal (z-score),[19],-0.543
same,glycan array binding signal (z-score),[20],-0.464
same,glycan array binding signal (z-score),[21],2.95
same,glycan array binding signal (z-score),[22],-0.916
same,glycan array binding signal (z-score),[23],1.73
same,glycan array binding signal (z-score),[24],-0.042
same,glycan array binding signal (z-score),[25],-0.243
same,glycan array binding signal (z-score),[26],-0.705
same,glycan array binding signal (z-score),[27],2.66
same,glycan array binding signal (z-score),[28],2.6
same,glycan array binding signal (z-score),[29],-0.856
same,glycan array binding signal (z-score),[30],-0.841
same,glycan array binding signal (z-score),[31],-0.6
same,glycan array binding signal (z-score),[32],2.06
same,glycan array binding signal (z-score),[33],-0.613
same,glycan array binding signal (z-score),[34],0.206
same,glycan array binding signal (z-score),[35],-0.06
same,glycan array binding signal (z-score),[36],1.35
same,glycan array binding signal (z-score),[37],0.708

# As a working copy, some entries already given:
binder,measurement,setting,value
"Protein L(B1-B4) (Finegoldia magna), Q51912 (protein) KEETPETPETDSEEEVTIKANLIFANGSTQTAEFKGTFEKATSEAYAYADTLKKDNGEYTVDVADKGYTLNIKFAGKEKTPEEPKEEVTIKANLIYADGKTQTAEFKGTFEEATAEAYRYADALKKDNGEYTVDVADKGYTLNIKFAGKEKTPEEPKEEVTIKANLIYADGKTQTAEFKGTFEEATAEAYRYADLLAKENGKYTVDVADKGYTLNIKFAGKEKTPEEPKEEVTIKANLIYADGKTQTAEFKGTFAEATAEAYRYADLLAKENGKYTADLEDGGYTINIRFAG",glycan array binding signal (z-score),[11],-0.372
same,glycan array binding signal (z-score),[12],-0.643
